Data on 2 compounds can be found in patent US11957759B1, “Rapidly accelerated fibrosarcoma (RAF) degrading compounds and associated methods of use” (Arvinas Operations, Inc., priority 2022, dated 2024).

Protein sequences, listed by entry. Tags and fused reporters are not part of them.
UniProt P15056, whole entry G466V: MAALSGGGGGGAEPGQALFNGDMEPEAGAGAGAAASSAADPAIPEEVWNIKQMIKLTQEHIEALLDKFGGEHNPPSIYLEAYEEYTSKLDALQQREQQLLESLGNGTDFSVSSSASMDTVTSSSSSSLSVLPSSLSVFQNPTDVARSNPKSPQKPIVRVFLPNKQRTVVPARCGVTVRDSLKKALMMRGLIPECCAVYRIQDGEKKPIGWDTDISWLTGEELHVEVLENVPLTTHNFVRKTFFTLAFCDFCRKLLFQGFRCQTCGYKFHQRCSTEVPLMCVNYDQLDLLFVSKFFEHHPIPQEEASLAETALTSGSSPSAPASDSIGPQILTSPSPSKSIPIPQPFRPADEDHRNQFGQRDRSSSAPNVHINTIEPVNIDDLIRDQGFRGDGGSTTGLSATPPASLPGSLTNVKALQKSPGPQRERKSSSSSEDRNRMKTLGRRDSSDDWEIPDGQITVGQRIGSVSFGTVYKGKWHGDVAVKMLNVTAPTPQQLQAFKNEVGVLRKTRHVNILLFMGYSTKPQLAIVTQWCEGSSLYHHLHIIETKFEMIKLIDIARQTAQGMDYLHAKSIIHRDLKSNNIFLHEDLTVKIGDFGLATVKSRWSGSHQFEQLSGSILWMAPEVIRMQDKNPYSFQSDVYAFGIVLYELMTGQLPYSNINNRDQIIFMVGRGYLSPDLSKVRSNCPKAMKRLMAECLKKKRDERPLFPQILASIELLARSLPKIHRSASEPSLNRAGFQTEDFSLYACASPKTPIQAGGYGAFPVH
UniProt P15056, whole entry V600E: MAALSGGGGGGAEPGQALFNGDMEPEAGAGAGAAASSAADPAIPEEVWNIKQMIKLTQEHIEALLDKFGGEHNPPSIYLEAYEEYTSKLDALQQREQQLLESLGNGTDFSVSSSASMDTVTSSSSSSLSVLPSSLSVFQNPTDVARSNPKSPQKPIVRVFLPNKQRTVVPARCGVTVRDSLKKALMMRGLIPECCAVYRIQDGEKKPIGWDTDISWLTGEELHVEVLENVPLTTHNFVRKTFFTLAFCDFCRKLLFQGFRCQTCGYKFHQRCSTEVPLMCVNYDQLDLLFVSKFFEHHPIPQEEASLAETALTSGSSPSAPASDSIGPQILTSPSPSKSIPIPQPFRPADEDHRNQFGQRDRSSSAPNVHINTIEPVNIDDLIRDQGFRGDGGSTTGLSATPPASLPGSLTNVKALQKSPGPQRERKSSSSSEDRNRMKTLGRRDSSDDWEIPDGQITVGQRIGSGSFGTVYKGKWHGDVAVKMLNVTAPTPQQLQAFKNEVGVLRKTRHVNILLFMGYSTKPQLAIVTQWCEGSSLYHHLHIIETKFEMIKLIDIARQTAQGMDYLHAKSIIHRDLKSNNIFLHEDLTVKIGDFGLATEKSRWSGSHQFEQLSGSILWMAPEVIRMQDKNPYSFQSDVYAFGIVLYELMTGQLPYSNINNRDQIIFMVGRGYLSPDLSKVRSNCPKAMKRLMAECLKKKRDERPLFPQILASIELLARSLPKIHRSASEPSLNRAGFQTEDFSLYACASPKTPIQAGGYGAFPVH

The target of one test is B-RAF V600E (Homo sapiens, UniProt P15056, V600E). Description: Target protein degradation, assay C: T-Rex 293 cells, HA-BRAF_V600E, 384 well format. To be noted: for B-RAF V600E DMax (%): T-Rex 293 HA-BRAF_V600E cells, 24 hours, Examples 83-269; for DC50: read-out: B-RAF V600E DC50, T-Rex 293 HA-BRAF_V600E cells, 24 hours, Examples 83-269. As to the method:
C. T-Rex 293 Cells (384 Well Format)
(§1) T-Rex 293 cells were purchased from Invitrogen (#R71007), and stably transfected with a pcDNA4/TO_HA-BRAF_V600E construct, using 400 ug Zeocin for selection. V600E cells are plated in DMEM media (Gibco #11965118) containing 10% FBS (Gibco #16000044), 1% penicillin-streptomycin (ThermoFisher #15140122), 1:250 zeocin (Invitrogen #R-25005), and 1 ng/mL doxycycline (Selleckchem #4163) at a density of 7,500 cells/well in 45 μl on PDL coated, black clear bottom 384 well plates (Corning #354663) and incubated at 37° C.+5% CO2 for 24 hours. The following day, PROTAC compounds in a 1:3 11 point dilution are diluted into DMEM media using an Agilent Bravo. 5 ul of PROTACs suspended in DMEM media are added to the cells, with a final assay concentration ranging from 300 nM to 5 pM in 0.5% DMSO. Plates are incubated at 37° C.+5% CO2 for 24 hours. At the end of treatment, media is aspirated, and cells are fixed in 50 uL 4% PFA (EMS #15710) in PBS++(PBS, 1 mM CaCl, 1 mM MgCl) at RT for 15 minutes. Cells are washed 2× with 60 uL PBS++ and permeabilized in 50 uL 1% Triton X-100 (Sigma #93443) in PBS++ for 5 minutes at RT. Cells are washed in PBS++ prior to blocking with 50 uL Licor blocking buffer (Licor #927-60001) for 1 hour at RT. HA-tagged BRAF was stained using 50 uL HA antibody (CST #3724) at 1:1000 in Licor blocking buffer for two hours at RT. Primary is aspirated before adding 50 ul of secondary antibody solution containing 1:1000 Hoechst (ThermoFisher #62249), 1:1000 HCS CellMask Deep Red Stain (ThermoFisher #H32721), and 1:5000 goat anti-rabbit IgG Alexa-Fluor 488 (ThermoFisher #A32731) in PBS++ for 1 hr at RT. Plates are washed 4× with 60 uL PBS++, then sealed with Adhesive Black Light Absorbing Film (VWR #89087-692) and imaged on the ThermoFisher CX7 PRO high content instrument. BRAF intensity is quantified in HCS Studio software (ThermoFisher), using a custom script, exported, analyzed using KNIME, and curve curation is performed in an ELN (Scilligence). Cell toxicity is measured via comparing number of nuclei in PROTAC treated wells to DMSO controls.
(§2) The concentration of an exemplary compound that leads to half maximal degradation (DC50) as well as the maximum degradation observed (Dmax, conventionally expressed as a percentage of control) is shown below in Table 2.

For a further test, the target named is B-RAF G466V (Homo sapiens, UniProt P15056, G466V). Kind of test: Target protein degradation, assay D: T-Rex 293 cells, HA-BRAF_G466V, 384 well format. To be noted: for B-RAF G466V DMax (%): T-Rex 293 HA-BRAF_G466V cells, 24 hours, Examples 83-269; for DC50: read-out: B-RAF G466V DC50, T-Rex 293 HA-BRAF_G466V cells, 24 hours, Examples 83-269. As to the method:
D. T-Rex 293 Cells (384 Well Format)
as §1, with “pcDNA4/TO_HA-BRAF_G466V” for “pcDNA4/TO_HA-BRAF_V600E”, “G466V” for “V600E”
as §2

The structures appear in SMILES notation. The match of structure and compound is tentative.

The DC50 is the concentration at which degradation of the target reaches its halfway point. With `N#Cc1c(NS(=O)(=O)N2CC[C@@H](F)C2)ccc(F)c1Oc1ccc2ncn(-c3cccc(N4CCC(CN5CCN(c6ccc7c(c6)CN([C@H]6CCC(=O)NC6=O)C7=O)CC5)C4)c3)c(=O)c2c1` (some centres unmarked), on B-RAF V600E, the “B-RAF V600E DMax (%)” value is on record as “B (35 < B < 70)” and the DC50 fell in the range of 50 to 500 nM. In addition, at B-RAF G466V, the “B-RAF G466V DMax (%)” value is “B (35 < B < 70)” and the DC50 is 10 to 30 nM.

Take `N#Cc1c(NS(=O)(=O)N2CC[C@@H](F)C2)ccc(F)c1Oc1ccc2ncn(-c3cccc(N4CCC(CN5CCC(c6ccc7c(c6)CN([C@H]6CCC(=O)NC6=O)C7=O)CC5)C4)c3)c(=O)c2c1` (some centres unmarked): at B-RAF V600E, the “B-RAF V600E DMax (%)” value was “C (C ≤ 35)” and the DC50 lay in the range of 50 to 500 nM. Also, on B-RAF G466V, the “B-RAF G466V DMax (%)” value was “B (35 < B < 70)” and the DC50 was in the range of 1 to 10 nM.
